Reference: US20170189504A1, “NOVEL PEPTIDES AND COMBINATION OF PEPTIDES FOR USE IN IMMUNOTHERAPY AGAINST VARIOUS CANCERS” (immatics biotechnologies GmbH, priority 2015, published 2017)

Key:
source genes (mRNA) [1] = assay: Expression profiling of source genes by in-house RNASeq of tumor and normal tissues (Table 18, FIG. 2); set-up: species or system human; key: very highly over-expressed in tumors compared to a panel of normal tissues (+++); highly over-expressed in tumors compared to a panel of normal tissues (++); over-expressed in tumors compared to a panel of normal tissues (+); details: source gene of peptide; for Expression score NSCLC: non-small cell lung cancer (N = 11) vs panel of normal tissues; for Expression score PC: pancreatic cancer (N = 26) vs panel of normal tissues; for Expression score UBC: urinary bladder cancer (N = 10) vs panel of normal tissues; for Expression score UEC: uterine cancer (N = 10) vs panel of normal tissues; for Expression score OC: ovarian cancer (N = 12) vs panel of normal tissues
source genes (mRNA) [2] = assay: Gene and exon expression of source genes, TCGA tumor samples compared with normal tissue samples (Lonsdale, 2013) (Table 17); set-up: species or system human; details: for Target coverage: over-expression category of source gene, BLCA: Bladder urothelial carcinoma (N = 408); for Target coverage: over-expression category of source gene, BRCA: Breast cancer (N = 1104), cutoff more than 2-fold above highest 75% percentile of high and medium risk normal tissue samples; for Target coverage: over-expression category of source gene, CHOL: Cholangiocarcinoma (N = 36); for Target coverage: over-expression category of source gene, KIRC: Clear cell kidney carcinoma (N = 534); for Target coverage: over-expression category of source gene, COAD: Colon and rectal adenocarcinoma (N = 462); for Target coverage: over-expression category of source gene, ESCA: Esophageal cancer (N = 185); for Target coverage: over-expression category of source gene, LUAD: Lung adenocarcinoma (N = 517); for Target coverage: over-expression category of source gene, LUSC: Lung squamous cell carcinoma (N = 503); for Target coverage: over-expression category of source gene, OV: Ovarian serous cystadenocarcinoma (N = 309); for Target coverage: over-expression category of source gene, PAAD: Pancreatic ductal adenocarcinoma (N = 179); for Target coverage: over-expression category of source gene, KIRP: Papillary kidney carcinoma (N = 291); for Target coverage: over-expression category of source gene, PRAD: Prostate adenocarcinoma (N = 498); for Target coverage: over-expression category of source gene, SKCM: Skin cutaneous melanoma (N = 473); for Target coverage: over-expression category of source gene, STAD: Stomach adenocarcinoma (N = 415); for Target coverage: over-expression category of source gene, UCEC: Uterine corpus endometrial carcinoma (N = 546)
HLA-A*02 = assay: Identification and relative LC-MS quantitation of HLA-A*02-presented tumor-associated peptides on tissue samples (presentation profiles, Tables 13A, 13B, 15, FIG. 1); set-up: species or system human; key to Presentation score NHL / Presentation score CLL / Presentation score BRCA / Presentation score AML / Presentation score GB / Presentation score NSCLC / Presentation score GBC_CCC / Presentation score UEC / Presentation score MEL / Presentation score OSCAR / Presentation score GC / Presentation score UBC / Presentation score OC / Presentation score RCC / Presentation score CRC / Presentation score PCA / Presentation score HCC / Presentation score PC / Presentation score SCLC: specifically presented on tumors (++++); very highly over-presented on tumors compared to a panel of normal tissues (+++); highly over-presented on tumors compared to a panel of normal tissues (++); over-presented on tumors compared to a panel of normal tissues (+); details: for Presentation score OSCAR: esophageal cancer, including cancer of the gastric-esophageal junction (N = 17) vs panel of normal tissues (N = 262); for Presentation score NSCLC: non-small cell lung cancer (N = 90) vs panel of normal tissues (N = 262); for Peptide Presentation on cancer entities: HLA-A*02-binding tumor-associated peptides; for Presentation score OC: ovarian cancer (N = 20) vs panel of normal tissues (N = 262)
[3] = cutoff more than 2-fold above highest 75% percentile of normal tissue samples
[4] = Table 13B, presentation on additional cancer entities
[5] = Table 13A, cancer entities on which the peptide was found presented

Substance	Expression score NSCLC (source genes (mRNA) [1])	Expression score PC (source genes (mRNA) [1])	Expression score UBC (source genes (mRNA) [1])	Expression score UEC (source genes (mRNA) [1])	Target coverage: over-expression category of source gene, BLCA (source genes (mRNA) [2]; [3])	Target coverage: over-expression category of source gene, BRCA (source genes (mRNA) [2])	Target coverage: over-expression category of source gene, CHOL (source genes (mRNA) [2]; [3])	Target coverage: over-expression category of source gene, KIRC (source genes (mRNA) [2]; [3])	Target coverage: over-expression category of source gene, COAD (source genes (mRNA) [2]; [3])	Target coverage: over-expression category of source gene, ESCA (source genes (mRNA) [2]; [3])	Target coverage: over-expression category of source gene, LUAD (source genes (mRNA) [2]; [3])	Target coverage: over-expression category of source gene, LUSC (source genes (mRNA) [2]; [3])	Target coverage: over-expression category of source gene, OV (source genes (mRNA) [2]; [3])	Target coverage: over-expression category of source gene, PAAD (source genes (mRNA) [2]; [3])	Target coverage: over-expression category of source gene, KIRP (source genes (mRNA) [2]; [3])	Target coverage: over-expression category of source gene, PRAD (source genes (mRNA) [2]; [3])	Target coverage: over-expression category of source gene, SKCM (source genes (mRNA) [2]; [3])	Target coverage: over-expression category of source gene, STAD (source genes (mRNA) [2]; [3])	Presentation score OSCAR (HLA-A*02; HLA-A*02 peptides)	Presentation score NSCLC (HLA-A*02; HLA-A*02 peptides)	also measured
23: peptide found in ADAM10 (gene looked up) (SLFSDEFKV; listed as Homo sapiens) [compound 23]	+	+	+++	+	B (>= 20% of tumors above the cutoff, but <50%)	B (>= 20% of tumors above the cutoff, but <50%)	B (>= 20% of tumors above the cutoff, but <50%)	B (>= 20% of tumors above the cutoff, but <50%)	C (>=5% of tumors above the cutoff, but <20%)	A (>=50% of tumors above the cutoff)	C (>=5% of tumors above the cutoff, but <20%)	C (>=5% of tumors above the cutoff, but <20%)	C (>=5% of tumors above the cutoff, but <20%)	C (>=5% of tumors above the cutoff, but <20%)	B (>= 20% of tumors above the cutoff, but <50%)	B (>= 20% of tumors above the cutoff, but <50%)	B (>= 20% of tumors above the cutoff, but <50%)	A (>=50% of tumors above the cutoff)	+	+	Expression score GBC_CCC (source genes (mRNA) [1]; gallbladder adenocarcinoma and cholangiocarcinoma (N = 3) vs panel of normal tissues): +; Expression score PCA (source genes (mRNA) [1]; prostate cancer and benign prostate hyperplasia (N = 5) vs panel of normal tissues): +; Target coverage: over-expression category of source gene, LAML (source genes (mRNA) [2]; Acute Myeloid Leukemia (N = 173), cutoff more than 2-fold above highest 75% percentile of normal tissue samples): A (>=50% of tumors above the cutoff); Target coverage: over-expression category of source gene, KICH (source genes (mRNA) [2]; Kidney chromophobe (N = 66), cutoff more than 2-fold above highest 75% percentile of normal tissue samples): C (>=5% of tumors above the cutoff, but <20%); Presentation score AML (HLA-A*02; HLA-A*02 peptides, acute myeloid leukemia (N = 18) vs panel of normal tissues (N = 262)): ++; Presentation score CRC (HLA-A*02; HLA-A*02 peptides, colorectal cancer (N = 28) vs panel of normal tissues (N = 262)): ++; Presentation score RCC (HLA-A*02; HLA-A*02 peptides, renal cell carcinoma (N = 20) vs panel of normal tissues (N = 262)): +; Presentation score UBC (HLA-A*02; HLA-A*02 peptides, urinary bladder cancer (N = 16) vs panel of normal tissues (N = 262)): +++; Peptide Presentation on cancer entities (HLA-A*02; [4]): MEL
25: peptide found in MUC16 (gene looked up) (TMDSVLVTV; listed as Homo sapiens) [compound 25]		+		++	C (>=5% of tumors above the cutoff, but <20%)	C (>=5% of tumors above the cutoff, but <20%)					C (>=5% of tumors above the cutoff, but <20%)		A (>=50% of tumors above the cutoff)	C (>=5% of tumors above the cutoff, but <20%)							Expression score OC (source genes (mRNA) [1]): +++; Target coverage: over-expression category of source gene, UCEC (source genes (mRNA) [2]; [3]): A (>=50% of tumors above the cutoff); Presentation score OC (HLA-A*02; HLA-A*02 peptides): ++++; Presentation score UEC (HLA-A*02; HLA-A*02 peptides, uterine cancer (N = 15) vs panel of normal tissues (N = 262)): ++++; Peptide Presentation on cancer entities (HLA-A*02; [5]): OC, UEC
33: peptide found in STAT1 (gene looked up) (YIKTELISV; listed as Homo sapiens) [compound 33]	++	+	+		B (>= 20% of tumors above the cutoff, but <50%)	B (>= 20% of tumors above the cutoff, but <50%)	A (>=50% of tumors above the cutoff)	B (>= 20% of tumors above the cutoff, but <50%)	B (>= 20% of tumors above the cutoff, but <50%)	A (>=50% of tumors above the cutoff)	A (>=50% of tumors above the cutoff)	B (>= 20% of tumors above the cutoff, but <50%)	B (>= 20% of tumors above the cutoff, but <50%)	C (>=5% of tumors above the cutoff, but <20%)	B (>= 20% of tumors above the cutoff, but <50%)	C (>=5% of tumors above the cutoff, but <20%)	B (>= 20% of tumors above the cutoff, but <50%)	B (>= 20% of tumors above the cutoff, but <50%)	++++	++++	Expression score BRCA (source genes (mRNA) [1]; BRCA tumors vs panel of normal tissues): ++; Expression score OSCAR (source genes (mRNA) [1]; esophageal cancer incl. gastric-esophageal junction (N = 11) vs panel of normal tissues): ++; Expression score GC (source genes (mRNA) [1]; gastric cancer (N = 11) vs panel of normal tissues): +; Expression score NHL (source genes (mRNA) [1]; non-Hodgkin lymphoma (N = 10) vs panel of normal tissues): +++; Expression score OC (source genes (mRNA) [1]): +++; Expression score RCC (source genes (mRNA) [1]; renal cell carcinoma (N = 10) vs panel of normal tissues): ++; Expression score SCLC (source genes (mRNA) [1]; small cell lung cancer (N = 10) vs panel of normal tissues): +; Target coverage: over-expression category of source gene, READ (source genes (mRNA) [2]; Colon and rectal adenocarcinoma (N = 167), cutoff more than 2-fold above highest 75% percentile of normal tissue samples): C (>=5% of tumors above the cutoff, but <20%); Target coverage: over-expression category of source gene, GBM (source genes (mRNA) [2]; Glioblastoma multiforme (N = 169), cutoff more than 2-fold above highest 75% percentile of normal tissue samples): C (>=5% of tumors above the cutoff, but <20%); Target coverage: over-expression category of source gene, LIHC (source genes (mRNA) [2]; Liver hepatocellular carcinoma (N = 374), cutoff more than 2-fold above highest 75% percentile of normal tissue samples): B (>= 20% of tumors above the cutoff, but <50%); Target coverage: over-expression category of source gene, LGG (source genes (mRNA) [2]; Lower grade glioma (N = 534), cutoff more than 2-fold above highest 75% percentile of normal tissue samples): C (>=5% of tumors above the cutoff, but <20%); Target coverage: over-expression category of source gene, DLBC (source genes (mRNA) [2]; Lymphoid neoplasm diffuse large B-cell lymphoma (N = 48), cutoff more than 2-fold above highest 75% percentile of normal tissue samples): A (>=50% of tumors above the cutoff); Target coverage: over-expression category of source gene, UCEC (source genes (mRNA) [2]; [3]): B (>= 20% of tumors above the cutoff, but <50%); Presentation score GC (HLA-A*02; HLA-A*02 peptides, gastric cancer (N = 29) vs panel of normal tissues (N = 262)): ++++; Presentation score NHL (HLA-A*02; HLA-A*02 peptides, non-Hodgkin lymphoma (N = 18) vs panel of normal tissues (N = 262)): ++++; Presentation score OC (HLA-A*02; HLA-A*02 peptides): ++++; Peptide Presentation on cancer entities (HLA-A*02; [5]): GC, NSCLC, OSCAR, OC, NHL; Peptide Presentation on cancer entities (HLA-A*02; [4]): HCC

For part of these data: For expression read-outs the peptide stands for its source gene, whose mRNA was measured; the gene is not named for every peptide.
